Measured values published in PubChem BioAssay AID270 (DTP/NCI, 2004).
The list shows only some results of the screen, not a fair sample: it gathers tests that were run many times, whatever their T/C, doses with no T/C, and many T/C values between a quarter and a half above the control. Further doses and runs are listed elsewhere. T/C gives the treated animals as a percentage of the vehicle group. Schedule codes are those of the source, taken here to give the interval after Q, in days (D) or hours (H), and the number of doses after X. Some entries were tested several times; the values are given in rising order. Some T/C values carry the count of animals alive at the toxicity check (mostly the fifth day); where none is given, no animal had died by that day. Some doses have a count of surviving animals in place of a T/C: the source files T/C as zero there, which appears to mark a toxic dose or a test without result, not a measured value. Some doses without a T/C left all or most animals alive at the check, yet need not have been tolerated: the source hardly ever lists a survival T/C far under the control, and the zero likely stands for such cases as well. Counts of survivors are from the toxicity check (mostly the fifth day) where no day follows; animals may have died later. Where survival is the endpoint, this PubChem deposit counts one and a half times the control or more as active, and values a quarter to a half above the control carry no call in these data; other NCI protocols may use other cut-offs.

Tested on: BDF1 mice, s.c. Lewis lung carcinoma, T/C %
Test: NCI In Vivo Anticancer Drug Screen. Data for tumor model Lewis Lung Carcinoma (subcutaneous) in B6D2F1 (BDF1) mice
Summary of the method: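 The value reflects a ratio in which the treated cohort's survival time or tumour size is compared against mice receiving only vehicle.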

[1] = T/C endpoint: median survival time, dose: 64.0 mg/kg/injection, schedule: Q01DX001 (ip), vehicle: saline + alcohol, higher T/C = longer survival
[2] = T/C endpoint: median survival time, dose: 128.0 mg/kg/injection, schedule: Q01DX001 (ip), vehicle: saline + alcohol, higher T/C = longer survival
[3] = T/C endpoint: median survival time, dose: 256.0 mg/kg/injection, schedule: Q01DX001 (ip), vehicle: saline + alcohol, higher T/C = longer survival

SMILES: CC1CCC(NC(=O)N(CCCl)N=O)CC1 (stereo not drawn)
- T/C (T/C endpoint: median survival time, dose: 27.0 mg/kg/injection, schedule: Q07DX002 (ip), vehicle: saline with Tween-80, evaluated on day 101, higher T/C = longer survival): 163 % of control
- T/C (T/C endpoint: median survival time, dose: 27.0 mg/kg/injection, schedule: Q07DX002 (ip), vehicle: saline with Tween-80, evaluated on day 119, higher T/C = longer survival): 198 % of control
- T/C (T/C endpoint: median survival time, dose: 30.0 mg/kg/injection, schedule: Q01DX001 (ip), vehicle: Klucel (hydroxypropylcellulose) (HPC), higher T/C = longer survival): 131 % of control
- T/C (T/C endpoint: median survival time, dose: 30.0 mg/kg/injection, schedule: Q01DX001 (ip), vehicle: other, higher T/C = longer survival): 148 % of control
- survivor count (T/C endpoint: median survival time, dose: 32.0 mg/kg/injection, schedule: Q01DX009 (ip), vehicle: saline with Tween-80, higher T/C = longer survival): 10 of 10
- T/C (T/C endpoint: median survival time, dose: 33.0 mg/kg/injection, schedule: Q07DX002 (ip), vehicle: saline with Tween-80, evaluated on day 80, higher T/C = longer survival): 262 % of control
- T/C (T/C endpoint: median survival time, dose: 33.0 mg/kg/injection, schedule: Q07DX002 (ip), vehicle: saline with Tween-80, evaluated on day 84, higher T/C = longer survival): 381 % of control
- T/C (T/C endpoint: median survival time, dose: 33.0 mg/kg/injection, schedule: Q07DX002 (ip), vehicle: saline with Tween-80, evaluated on day 101, higher T/C = longer survival): 413 % of control
- T/C (T/C endpoint: median survival time, dose: 33.0 mg/kg/injection, schedule: Q07DX002 (ip), vehicle: saline with Tween-80, evaluated on day 119, higher T/C = longer survival): 160 % of control
- T/C (T/C endpoint: median survival time, dose: 36.0 mg/kg/injection, schedule: Q01DX001 (ip), vehicle: Klucel (hydroxypropylcellulose) (HPC), higher T/C = longer survival): 130 % of control
- T/C (T/C endpoint: median survival time, dose: 36.0 mg/kg/injection, schedule: Q01DX001 (ip), vehicle: gum acacia, evaluated on day 15, higher T/C = longer survival): 257 % of control
- T/C (T/C endpoint: median survival time, dose: 36.0 mg/kg/injection, schedule: Q01DX001 (ip), vehicle: gum acacia, evaluated on day 43, higher T/C = longer survival): 179 % of control
- T/C (T/C endpoint: median survival time, dose: 36.0 mg/kg/injection, schedule: Q01DX001 (ip), vehicle: gum acacia, evaluated on day 46, higher T/C = longer survival): 139 % of control
- T/C (T/C endpoint: median survival time, dose: 36.0 mg/kg/injection, schedule: Q01DX001 (ip), vehicle: gum acacia, evaluated on day 77, higher T/C = longer survival): 353 % of control
- T/C (T/C endpoint: median survival time, dose: 36.0 mg/kg/injection, schedule: Q01DX001 (ip), vehicle: gum acacia, evaluated on day 136, higher T/C = longer survival): 138 % of control
- T/C (T/C endpoint: median survival time, dose: 36.0 mg/kg/injection, schedule: Q01DX001 (ip), vehicle: saline with Tween-80, evaluated on day 12, higher T/C = longer survival): 152 and 157 % of control
- T/C (T/C endpoint: median survival time, dose: 36.0 mg/kg/injection, schedule: Q01DX001 (ip), vehicle: saline with Tween-80, evaluated on day 52, higher T/C = longer survival): 176 % of control
- T/C (T/C endpoint: median survival time, dose: 36.0 mg/kg/injection, schedule: Q01DX001 (ip), vehicle: saline with Tween-80, evaluated on day 54, higher T/C = longer survival): 165 % of control
- T/C (T/C endpoint: median survival time, dose: 36.0 mg/kg/injection, schedule: Q01DX001 (ip), vehicle: saline with Tween-80, evaluated on day 90, higher T/C = longer survival): 189 % of control
- T/C (T/C endpoint: median survival time, dose: 36.0 mg/kg/injection, schedule: Q01DX001 (ip), vehicle: saline with Tween-80, evaluated on day 92, higher T/C = longer survival): 95 % of control
- survivor count (T/C endpoint: median survival time, dose: 36.0 mg/kg/injection, schedule: Q06DX002 (ip), vehicle: gum acacia, higher T/C = longer survival): 10 of 10 on day 15
- T/C (T/C endpoint: median survival time, dose: 36.0 mg/kg/injection, schedule: Q08DX002 (ip), vehicle: gum acacia, higher T/C = longer survival): 145 % of control
- T/C (T/C endpoint: median survival time, dose: 36.0 mg/kg/injection, schedule: Q11DX002 (ip), vehicle: saline with Tween-80, higher T/C = longer survival): 144 % of control
- T/C (T/C endpoint: median survival time, dose: 36.0 mg/kg/injection, schedule: Q11DX002 (oral), vehicle: saline with Tween-80, higher T/C = longer survival): 135 % of control
- survivor count (T/C endpoint: median survival time, dose: 54.0 mg/kg/injection, schedule: Q01DX001 (ip), vehicle: saline with Tween-80, higher T/C = longer survival): 10 of 10 on day 11
- survivor count (T/C endpoint: median survival time, dose: 60.0 mg/kg/injection, schedule: Q01DX001 (ip), vehicle: Klucel (hydroxypropylcellulose) (HPC), higher T/C = longer survival): 10 of 10
- T/C [1]: 138 % of control
- survivor count [1]: 10 of 10
- survivor count (T/C endpoint: median survival time, dose: 72.0 mg/kg/injection, schedule: Q01DX001 (ip), vehicle: Klucel (hydroxypropylcellulose) (HPC), higher T/C = longer survival): 10 of 10
- survivor count (T/C endpoint: median survival time, dose: 80.0 mg/kg/injection, schedule: Q01DX001 (ip), vehicle: saline with Tween-80, higher T/C = longer survival): 9 of 10 and 10 of 10
- survivor count (T/C endpoint: median survival time, dose: 81.0 mg/kg/injection, schedule: Q01DX001 (ip), vehicle: saline with Tween-80, higher T/C = longer survival): 8 of 10 on day 11
- T/C [2]: 146 % of control
- survivor count [2]: 10 of 10
- survivor count (T/C endpoint: median survival time, dose: 144.0 mg/kg/injection, schedule: Q01DX001 (ip), vehicle: Klucel (hydroxypropylcellulose) (HPC), higher T/C = longer survival): 10 of 10
- survivor count (T/C endpoint: median survival time, dose: 160.0 mg/kg/injection, schedule: Q01DX001 (ip), vehicle: saline with Tween-80, higher T/C = longer survival): 6 of 10, 8 of 10, 10 of 10 on day 11
- survivor count (T/C endpoint: median survival time, dose: 240.0 mg/kg/injection, schedule: Q01DX001 (ip), vehicle: saline with Tween-80, higher T/C = longer survival): 10 of 10 on day 11
- T/C [3]: 125 % of control
- survivor count [3]: 10 of 10
- survivor count (T/C endpoint: median survival time, dose: 360.0 mg/kg/injection, schedule: Q01DX001 (ip), vehicle: saline with Tween-80, higher T/C = longer survival): 7 of 10 on day 11
- survivor count (T/C endpoint: median survival time, dose: 540.0 mg/kg/injection, schedule: Q01DX001 (ip), vehicle: saline with Tween-80, higher T/C = longer survival): 1 of 10 on day 11
- survivor count (T/C endpoint: median tumor weight (est.), dose: 12.0 mg/kg/injection, schedule: Q01DX001 (ip), vehicle: gum acacia, higher T/C = larger tumour): 6 of 10 on day 19
- survivor count (T/C endpoint: median tumor weight (est.), dose: 16.0 mg/kg/injection, schedule: Q01DX009 (ip), vehicle: Klucel (hydroxypropylcellulose) (HPC), higher T/C = larger tumour): 1 of 10
- T/C (T/C endpoint: median tumor weight (est.), dose: 24.0 mg/kg/injection, schedule: Q01DX001 (ip), vehicle: gum acacia, evaluated on day 16, higher T/C = larger tumour): 7 and 8 % of control
- T/C (T/C endpoint: median tumor weight (est.), dose: 24.0 mg/kg/injection, schedule: Q01DX001 (ip), vehicle: gum acacia, evaluated on day 18, higher T/C = larger tumour): 2 % of control
- T/C (T/C endpoint: median tumor weight (est.), dose: 24.0 mg/kg/injection, schedule: Q01DX001 (ip), vehicle: gum acacia, evaluated on day 19, higher T/C = larger tumour): 4 % of control [9 of 10 alive on day 19]
- T/C (T/C endpoint: median tumor weight (est.), dose: 24.0 mg/kg/injection, schedule: Q01DX001 (ip), vehicle: gum acacia, evaluated on day 21, higher T/C = larger tumour): 11 % of control
- T/C (T/C endpoint: median tumor weight (est.), dose: 24.0 mg/kg/injection, schedule: Q01DX001 (ip), vehicle: saline with Tween-80, evaluated on day 18, higher T/C = larger tumour): 144 % of control [9 of 10 alive on day 18]
- survivor count (T/C endpoint: median tumor weight (est.), dose: 36.0 mg/kg/injection, schedule: Q01DX001 (ip), vehicle: DMSO, higher T/C = larger tumour): 4 of 10 on day 14
- T/C (T/C endpoint: median tumor weight (est.), dose: 36.0 mg/kg/injection, schedule: Q01DX001 (ip), vehicle: gum acacia, evaluated on day 16, higher T/C = larger tumour): 9 [9 of 10 alive on day 16] and 11 % of control [9 of 10 alive on day 16]
- T/C (T/C endpoint: median tumor weight (est.), dose: 36.0 mg/kg/injection, schedule: Q01DX001 (ip), vehicle: gum acacia, evaluated on day 18, higher T/C = larger tumour): 5 % of control
- T/C (T/C endpoint: median tumor weight (est.), dose: 36.0 mg/kg/injection, schedule: Q01DX001 (ip), vehicle: gum acacia, evaluated on day 21, higher T/C = larger tumour): 3 % of control [9 of 10 alive on day 21]
- survivor count (T/C endpoint: median tumor weight (est.), dose: 54.0 mg/kg/injection, schedule: Q01DX001 (ip), vehicle: DMSO, higher T/C = larger tumour): 1 of 10 on day 14
- survivor count (T/C endpoint: median tumor weight (est.), dose: 54.0 mg/kg/injection, schedule: Q01DX001 (ip), vehicle: gum acacia, higher T/C = larger tumour): 0 of 10 on day 21
- survivor count (T/C endpoint: median tumor weight (est.), dose: 54.0 mg/kg/injection, schedule: Q01DX001 (sc), vehicle: olive oil, sesame oil, peanut oil, higher T/C = larger tumour): 0 of 10 on day 14
- survivor count (T/C endpoint: median tumor weight (est.), dose: 60.0 mg/kg/injection, schedule: Q01DX001 (ip), vehicle: Klucel (hydroxypropylcellulose) (HPC), higher T/C = larger tumour): 2 of 10
- survivor count (T/C endpoint: median tumor weight (est.), dose: 100.0 mg/kg/injection, schedule: Q01DX001 (ip), vehicle: saline with Tween-80, higher T/C = larger tumour): 4 of 10 on day 21
- survivor count (T/C endpoint: median tumor weight (est.), dose: 125.0 mg/kg/injection, schedule: Q01DX001 (ip), vehicle: saline with Tween-80, higher T/C = larger tumour): 0 of 10 on day 21
- survivor count (T/C endpoint: median tumor weight (est.), dose: 150.0 mg/kg/injection, schedule: Q01DX001 (ip), vehicle: saline with Tween-80, higher T/C = larger tumour): 1 of 10 on day 21
